Experimental data as given in publication PMC3404970.
These are yes or no findings as the source states them, for the method shown. For some of these results: A result given as binding can be weak or reduced; the word gives no strength. For some of these results: Tags and fused reporters may be left off the sequences shown. For some of these results: In cells and extracts the contact can be indirect.

Chains of the proteins cited; added tags and fusions are not shown. Lines headed by an entry give the natural chain unless they say otherwise; changes in a name come on top.
UniProt P11309: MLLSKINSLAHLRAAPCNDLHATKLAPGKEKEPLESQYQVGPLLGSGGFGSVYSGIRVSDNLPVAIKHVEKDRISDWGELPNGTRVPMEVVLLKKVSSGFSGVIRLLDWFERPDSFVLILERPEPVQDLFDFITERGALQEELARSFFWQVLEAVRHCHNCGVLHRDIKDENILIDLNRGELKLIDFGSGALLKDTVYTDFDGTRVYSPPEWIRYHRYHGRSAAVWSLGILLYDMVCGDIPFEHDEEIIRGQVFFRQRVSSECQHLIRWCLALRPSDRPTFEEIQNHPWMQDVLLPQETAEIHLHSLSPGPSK

Legend:
[1] = target: T1, endogenous VDR of human HaCaT keratinocytes (human (endogenous in HaCaT)) (UniProt P11473); assay: pull-down; the same DRIP-2 peptide pull-down from HaCaT lysate, read for endogenous PIM-1 found with endogenous VDR in the captured complex (western blot)
T1 sequence: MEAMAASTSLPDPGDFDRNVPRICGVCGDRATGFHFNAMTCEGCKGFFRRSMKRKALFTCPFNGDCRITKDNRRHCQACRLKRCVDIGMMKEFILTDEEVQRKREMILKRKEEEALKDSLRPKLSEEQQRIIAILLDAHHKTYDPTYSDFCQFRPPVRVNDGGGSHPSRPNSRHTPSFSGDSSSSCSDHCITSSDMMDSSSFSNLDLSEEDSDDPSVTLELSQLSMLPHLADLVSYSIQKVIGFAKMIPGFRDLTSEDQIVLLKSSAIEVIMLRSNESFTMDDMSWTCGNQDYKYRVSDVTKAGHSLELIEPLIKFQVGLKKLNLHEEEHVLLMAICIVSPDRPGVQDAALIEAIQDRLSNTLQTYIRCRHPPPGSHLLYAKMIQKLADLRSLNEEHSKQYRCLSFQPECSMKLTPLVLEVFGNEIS

[2] = target: T2, DNA-binding domain of human VDR (DBD, AA 16-125), GAL4 DNA-binding domain fusion (human) (UniProt P11473); assay: two-hybrid; pairwise co-transformation of pBD-Gate2 baits (VDR, DBD, LBD) and pAD-Gate2 preys (PIM-1) into yeast AH109; growth on SD/-leu-trp-ade-his after 4 days at 28 C; empty vectors as negative controls
T2 sequence: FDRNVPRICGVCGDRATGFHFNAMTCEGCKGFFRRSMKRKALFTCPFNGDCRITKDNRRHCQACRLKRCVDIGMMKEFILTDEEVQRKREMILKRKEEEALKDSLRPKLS

[3] = target: T3, full-length human vitamin D receptor (VDR), GAL4 DNA-binding domain fusion (VDR-pBD-Gate2 bait) (human) (UniProt P11473); assay: as above
T3 sequence: T1 sequence

[4] = target: T4, ligand-binding domain of human VDR (LBD, amino acids 111-427), GAL4 DNA-binding domain fusion (human) (UniProt P11473); assay: as above
T4 sequence: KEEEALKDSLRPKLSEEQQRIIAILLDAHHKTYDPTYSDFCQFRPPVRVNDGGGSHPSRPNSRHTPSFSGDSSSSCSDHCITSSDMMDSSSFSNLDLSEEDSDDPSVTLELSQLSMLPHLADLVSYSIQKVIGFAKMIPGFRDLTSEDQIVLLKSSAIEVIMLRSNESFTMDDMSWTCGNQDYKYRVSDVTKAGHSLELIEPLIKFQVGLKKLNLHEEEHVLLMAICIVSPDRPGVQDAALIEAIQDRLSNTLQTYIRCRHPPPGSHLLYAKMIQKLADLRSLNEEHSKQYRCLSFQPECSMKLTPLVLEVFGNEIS

| binding [1] | binding [2] | binding [3] | binding [4] | Substance |
| --- | --- | --- | --- | --- |
| binds |  |  |  | endogenous PIM-1 isoform 2 of human HaCaT keratinocytes (from UniProt P11309) (enzyme) |
|  | binds | binds | no binding | full-length human PIM-1 kinase isoform 2, GAL4 activation domain fusion (PIM-1-pAD-Gate2) (enzyme) |
